Results are given in words; binding and its absence hold for the method and conditions named. In cells and extracts the contact can be indirect. A yes stands for co-enrichment or nearness to the bait. Other partners may have been found.
T1: M6a-loops (rat) (UniProt Q812E9)
T1 sequence (chain, biotin on the BAP (sec-BirA from the pBig plasmid)): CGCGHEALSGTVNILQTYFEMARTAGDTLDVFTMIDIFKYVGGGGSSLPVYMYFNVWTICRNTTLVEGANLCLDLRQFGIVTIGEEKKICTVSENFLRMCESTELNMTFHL


Target: T1, M6a-loops (rat)
Experiment: affinity purification with mass spectrometry; M6a-loops (10-25 ug, from concentrated supernatant) held by anti-SV5-mAb cross-linked to protein A magnetic beads (1 h, room temperature); incubated with clarified pooled rat hippocampi extract (P14, P21, P30; 1% Triton X-100 in PBS; 200-350 ug) overnight at 4 C; washed three times with PBS-T; eluted in SDS buffer with DTT; TMT/MS; mock: M6a-loops with protein A beads without anti-SV5; three co-IPs with two replicates each

Binder | binding
Cntn1 (protein, UniProt Q63198 21-1001) EFTWHRRYGHGVSEEDKGFGPIFEEQPINTIYPEESLEGKVSLNCRARASPFPVYKWRMNNGDVDLTNDRYSMVGGNLVINNPDKQKDAGIYYCLASNNYGMVRSTEATLSFGYLDPFPPEDRPEVKVKEGKGMVLLCDPPYHFPDDLSYRWLLNEFPVFITMDKRRFVSQTNGNLYIANVESSDRGNYSCFVSSPSITKSVFSKFIPLIPIPERTTKPYPADIVVQFKDIYTMMGQNVTLECFALGNPVPDIRWRKVLEPMPTTAEISTSGAVLKIFNIQLEDEGLYECEAENIRGKDKHQARIYVQAFPEWVEHINDTEVDIGSDLYWPCVATGKPIPTIRWLKNGYAYHKGELRLYDVTFENAGMYQCIAENAYGTIYANAELKILALAPTFEMNPMKKKILAAKGGRVIIECKPKAAPKPKFSWSKGTEWLVNSSRILIWEDGSLEINNITRNDGGIYTCFAENNRGKANSTGTLVITNPTRIILAPINADITVGENATMQCAASFDPSLDLTFVWSFNGYVIDFNKEITNIHYQRNFMLDANGELLIRNAQLKHAGRYTCTAQTIVDNSSASADLVVRGPPGPPGGLRIEDIRATSVALTWSRGSDNHSPISKYTIQTKTILSDDWKDAKTDPPIIEGNMESAKAVDLIPWMEYEFRVVATNTLGTGEPSIPSNRIKTDGAAPNVAPSDVGGGGGTNRELTITWAPLSREYHYGNNFGYIVAFKPFDGEEWKKVTVTNPDTGRYVHKDETMTPSTAFQVKVKAFNNKGDGPYSLIAVINSAQDAPSEAPTEVGVKVLSSSEISVHWKHVLEKIVESYQIRYWAGHDKEAAAHRVQVTSQEYSARLENLLPDTQYFIEVGACNSAGCGPSSDVIETFTRKAPPSQPPRIISSVRSGSRYIITWDHVVALSNESTVTGYKILYRPDGQHDGKLFSTHKHSIEVPIPRDGEYVVEVRAHSDGGDGVVSQVKISGVSTLS | binds
Nckap1 (protein, UniProt P55161 1-1128) MSRSVLQPSQQKLAEKLTILNDRGVGMLTRLYNIKKACGDPKAKPSYLIDKNLESAVKFIVRKFPAVETRNNNQQLAQLQKEKSEILKNLALYYFTFVDVMEFKDHVCDLLNTIDVCQVFFDITVNFDLTKNYLDLTVTYTTLMILLSRIEERKAIIGLYNYAHEMTHGASDREYPRLGQMIVDYEHPLKKMMEEFVPHSKSLSDALISLQMVYPRRNLSADQWRNAQLLSLISAPSTMLNPAQSDTMPCEYLSLDAMEKWIIFGFILCHGMLNTEATALNLWKLALQSSSCLSLFRDEVFHIHKAAEDLFVNIRGYNKRINDIRECKEAAVSHAGSMHRERRKFLRSALKELATVLSDQPGLLGPKALFVFMALSFARDEIIWLLRHADNMPKKSADDFIDKHIAELIFYMEELRAHVRKYGPVMQRYYVQYLSGFDAVVLNELVQNLSVCPEDESIIMSSFVNTMTSLSVKQVEDGEVFDFRGMRLDWFRLQAYTSVSKASLSLADHRELGKMMNTIIFHTKMVDSLVEMLVETSDLSIFCFYSRAFEKMFQQCLELPSQSRYSIAFPLLCTHFMSCTHELCPEERHHIGDRSLSLCNMFLDEMAKQARNLITDICTEQCTLSDQLLPKHCAKTISQAVNKKSKKQTGKKGEPEREKPGVESMRKNRLVVTNLDKLHTALSELCFSINYVPNMAVWEHTFTPREYLTSHLEIRFTKSIVGMTMYNQATQEIAKPSELLTSVREYMTVLQSIENYVQIDITRVFNNVLLQQTQHLDSHGEPTITSLYTNWYLETLLRQVSNGHIAYFPAMKAFVNLPTENELTFNAEEYSDISEMRSLSELLGPYGMKFLSESLMWHISSQVAELKKLVVENVDVLTQMRTSFDKPDQMAALFKRLSSVDSVLKRMTIIGVILSFRSLAQEALRDVLSYHIPFLVSSIEDFKDHIPRETDMKVAMNVYELSSAAGLPCEIDPALVVALSSQKSENISPEEEYKIACLLMVFVAVSLPTLASNVMSQYSPAIEGHCNNIHCLAKAINQIAAALFTIHKGSIEDRLKEFLALASSSLLKIGQETDKTTTRNRESVYLLLDMIVQESPFLTMDLLESCFPYVLLRNAYHAVYKQSVTSSA | binds
Scamp5 (protein, UniProt Q9JKE3 1-235) MAEKVNNFPPLPKFIPLKPCFYQDFEADIPPQHLSLTKRLYYLWMLNSVTLAVNLVGCLAWLIGGGGATNFGLAFLWLILFTPCSYVCWFRPIYKAFKTDSSFSFMAFFFTFMAQLVISIIQAVGIPGWGVCGWIATISFFGTNIGSAVVMLIPTVMFTVVAVFSFIALSMVHKFYRGSGGSFSKAQEEWTTGAWKNPHVQQAAQNAAMGAAQGAMNQPQTQYSTTPNYTYSNEM | binds
Mog (protein, UniProt Q63345 28-245) GQFRVIGPGHPIRALVGDEAELPCRISPGKNATGMEVGWYRSPFSRVVHLYRNGKDQDAEQAPEYRGRTELLKESIGEGKVALRIQNVRFSDEGGYTCFFRDHSYQEEAAVELKVEDPFYWINPGVLALIALVPMLLLQVSVGLVFLFLQHRLRGKLRAEVENLHRTFDPHFLRVPCWKITLFVIVPVLGPLVALIICYNWLHRRLAGQFLEELRNPF | binds
Vapa (protein, UniProt Q9Z270 1-249) MASASGAMAKHEQILVLDPPSDLKFKGPFTDVVTTNLKLQNPSDRKVCFKVKTTAPRRYCVRPNSGVIDPGSIVTVSVMLQPFDYDPNEKSKHKFMVQTIFAPPNISDMEAVWKEAKPDELMDSKLRCVFEMPNENDKLNDMEPSKAVPLNASKQDGPLPKPHSVSLNDTETRKLMEECKRLQGEMMKLSEENRHLRDEGLRLRKVAHSDKPGSTSAVSFRDNVTSPLPSLLVVIAAIFIGFFLGKFIL | binds
Rnpep (protein, UniProt O09175 1-650) MESSGPSSCHSAARRPLHSAQAVDVASASSFRAFEILHLHLDLRAEFGPPGPGPGSRGLNGKATLELRCLLPEGASELRLDSHSCLEVMAATLLRGQPGDQQQLTEPVPFHTQPFSHYGQALCVVFPKPCCAAERFRLELTYRVGEGPGVCWLAPEQTAGKKKPFVYTQGQAVLNRAFFPCFDTPAVKCTYSALVEVPDGFTAVMSASTWERRGPNKFFFQMSQPIPSYLIALAIGDLASAEVGPRSRVWAEPCLIEAAKEEYNGVIEEFLATGEKLFGPYVWGRYDLLFMPPSFPFGGMENPCLTFVTPCLLAGDRSLADVIIHEISHSWFGNLVTNANWGEFWLNEGFTMYAQRRISTILFGAAYTCLEAATGRALLRQHMDVSGEENPLNKLRVKIEPGVDPDDTYNETPYEKGYCFVSYLAHLVGDQEQFDKFLKAYVDEFKFQSILAEDFLEFYLEYFPELKKKGVDSIPGFEFNRWLNTPGWPPYLPDLSPGDSLMKPAEELAELWAASEPDMQAIEAVAISTWKTYQLVYFLDKILQKSPLPPGNVKKLGETYPKISNAQNAELRLRWGQIILKNDHQEEFWKVKDFLQSQGKQKYTLPLYHAMMGGSEMARTLAKETFSATASQLHSNVVNYVQQILAPKGS | binds
Slc17a7 (protein, UniProt Q62634 1-560) MEFRQEEFRKLAGRALGRLHRLLEKRQEGAETLELSADGRPVTTHTRDPPVVDCTCFGLPRRYIIAIMSGLGFCISFGIRCNLGVAIVSMVNNSTTHRGGHVVVQKAQFNWDPETVGLIHGSFFWGYIVTQIPGGFICQKFAANRVFGFAIVATSTLNMLIPSAARVHYGCVIFVRILQGLVEGVTYPACHGIWSKWAPPLERSRLATTAFCGSYAGAVVAMPLAGVLVQYSGWSSVFYVYGSFGIFWYLFWLLVSYESPALHPSISEEERKYIEDAIGESAKLMNPVTKFNTPWRRFFTSMPVYAIIVANFCRSWTFYLLLISQPAYFEEVFGFEISKVGLVSALPHLVMTIIVPIGGQIADFLRSRHIMSTTNVRKLMNCGGFGMEATLLLVVGYSHSKGVAISFLVLAVGFSGFAISGFNVNHLDIAPRYASILMGISNGVGTLSGMVCPIIVGAMTKHKTREEWQYVFLIASLVHYGGVIFYGVFASGEKQPWAEPEEMSEEKCGFVGHDQLAGSDESEMEDEVEPPGAPPAPPPSYGATHSTVQPPRPPPPVRDY | binds

— article PMC7396582
